Experiment [1] deals with T1, Siah-1 (human) (UniProt Q8IUQ4).
T1 sequence: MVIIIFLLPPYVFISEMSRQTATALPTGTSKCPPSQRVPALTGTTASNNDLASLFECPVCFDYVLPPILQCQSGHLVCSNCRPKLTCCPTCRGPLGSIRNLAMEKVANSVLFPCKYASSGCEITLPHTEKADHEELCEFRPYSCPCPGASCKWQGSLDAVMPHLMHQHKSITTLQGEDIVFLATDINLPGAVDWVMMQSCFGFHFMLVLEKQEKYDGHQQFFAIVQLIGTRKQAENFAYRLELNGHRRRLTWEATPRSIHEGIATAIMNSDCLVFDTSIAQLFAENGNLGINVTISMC
The experiment can be described thus: yeast two-hybrid library screen; LexA-Siah-1 (22-298) bait, human embryonic brain cDNA clones encoding portions of Siah-1.

Protein sequences, listed by entry. Tags and fused reporters are not part of them. Lines headed by an entry give the natural chain unless they say otherwise; changes in a name come on top. Residues count along the entry.
UniProt P25054, residues 2681-2843: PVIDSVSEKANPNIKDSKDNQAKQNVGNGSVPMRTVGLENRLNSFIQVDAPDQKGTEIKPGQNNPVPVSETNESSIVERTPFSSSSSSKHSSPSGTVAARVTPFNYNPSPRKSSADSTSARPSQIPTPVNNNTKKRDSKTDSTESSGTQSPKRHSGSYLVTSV
UniProt P63208: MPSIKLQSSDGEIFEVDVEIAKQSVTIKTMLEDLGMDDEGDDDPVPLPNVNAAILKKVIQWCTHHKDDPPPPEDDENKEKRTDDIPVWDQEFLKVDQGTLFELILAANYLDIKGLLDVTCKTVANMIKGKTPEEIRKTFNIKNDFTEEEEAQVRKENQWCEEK
UniProt Q9Y3I1: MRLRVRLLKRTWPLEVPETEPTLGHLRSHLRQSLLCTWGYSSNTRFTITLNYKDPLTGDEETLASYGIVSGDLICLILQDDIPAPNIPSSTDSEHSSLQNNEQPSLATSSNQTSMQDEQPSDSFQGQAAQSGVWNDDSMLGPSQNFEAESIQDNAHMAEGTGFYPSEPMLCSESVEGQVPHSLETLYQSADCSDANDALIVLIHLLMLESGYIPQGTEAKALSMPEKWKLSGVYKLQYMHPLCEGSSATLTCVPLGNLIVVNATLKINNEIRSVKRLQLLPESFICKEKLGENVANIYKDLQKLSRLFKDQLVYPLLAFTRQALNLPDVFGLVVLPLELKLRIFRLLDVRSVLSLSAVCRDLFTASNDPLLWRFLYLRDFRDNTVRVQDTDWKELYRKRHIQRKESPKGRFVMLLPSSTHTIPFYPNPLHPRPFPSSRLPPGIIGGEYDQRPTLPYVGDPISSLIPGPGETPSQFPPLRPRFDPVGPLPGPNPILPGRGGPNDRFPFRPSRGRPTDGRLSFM

Experiment [2] has as its target T1, Siah-1 (human). Briefly: yeast two-hybrid.
Substrate in experiment [3]: T2, SIP-S (human)
T2 sequence: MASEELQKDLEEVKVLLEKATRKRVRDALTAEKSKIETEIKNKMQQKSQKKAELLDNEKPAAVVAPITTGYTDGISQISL
Briefly: yeast two-hybrid; LexA-Siah-1 with B42-SIP-S; growth on leucine-deficient media (Leu+).

Experiment [4] concerns the target SIP-L (human) (UniProt Q9HB71). Briefly: yeast two-hybrid; LexA-Siah-1 with B42-SIP-L; β-galactosidase filter assay.
In experiment [5] the target is SIP-L (human) (UniProt Q9HB71). Briefly: yeast two-hybrid; LexA-Siah-1 with B42-SIP-L; growth on leucine-deficient media (Leu+).
In experiment [6] the target is APC (2681-2843) (human) (UniProt P25054). Briefly: yeast two-hybrid; LexA-Siah-1 with B42-APC(2681-2843); β-galactosidase filter assay.
Substrate in experiment [7]: T2, 
Briefly: yeast two-hybrid; LexA-Siah-1 with B42-SIP-S; β-galactosidase filter assay.

For experiment [8], the target named is APC (2681-2843) (human) (UniProt P25054). The experiment can be described thus: yeast two-hybrid; LexA-Siah-1 with B42-APC(2681-2843); growth on leucine-deficient media (Leu+).
For experiment [9], the target named is T1, Siah-1 (human). Briefly: GST pull-down with 35S-labeled in vitro translated Siah-1 (FIG. 5A); the immobilised Siah-1 fusion is not described.
Another experiment concerns the target T3, SAD (human) (UniProt Q9UKT4).
T3 sequence: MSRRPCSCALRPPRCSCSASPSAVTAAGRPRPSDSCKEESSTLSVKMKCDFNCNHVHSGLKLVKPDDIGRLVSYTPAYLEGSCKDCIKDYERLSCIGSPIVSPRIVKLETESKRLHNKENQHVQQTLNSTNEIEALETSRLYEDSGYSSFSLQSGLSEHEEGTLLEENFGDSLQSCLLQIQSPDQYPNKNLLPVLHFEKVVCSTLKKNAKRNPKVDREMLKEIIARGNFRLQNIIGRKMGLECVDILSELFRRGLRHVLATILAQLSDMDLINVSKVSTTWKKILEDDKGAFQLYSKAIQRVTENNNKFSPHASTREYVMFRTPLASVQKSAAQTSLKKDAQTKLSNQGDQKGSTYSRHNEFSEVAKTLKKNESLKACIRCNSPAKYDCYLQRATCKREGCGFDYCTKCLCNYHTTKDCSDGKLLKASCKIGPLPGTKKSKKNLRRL
The experiment can be described thus: yeast two-hybrid; B42-SAF-1α fragments with LexA-SAD (FIG. 6A).

The target in experiment [10] is SIP-L (human) (UniProt Q9HB71). The experiment can be described thus: yeast two-hybrid; B42-SAF-1α fragments with LexA-SIP-L (FIG. 6A).
The next experiment concerns the target Skp1 (human) (UniProt P63208). Briefly: yeast two-hybrid; B42-SAD and fragments with LexA-SKP1 (FIG. 6B).
The target of a further experiment is T4, SAF-1 (human) (UniProt Q9Y3I1).
T4 sequence: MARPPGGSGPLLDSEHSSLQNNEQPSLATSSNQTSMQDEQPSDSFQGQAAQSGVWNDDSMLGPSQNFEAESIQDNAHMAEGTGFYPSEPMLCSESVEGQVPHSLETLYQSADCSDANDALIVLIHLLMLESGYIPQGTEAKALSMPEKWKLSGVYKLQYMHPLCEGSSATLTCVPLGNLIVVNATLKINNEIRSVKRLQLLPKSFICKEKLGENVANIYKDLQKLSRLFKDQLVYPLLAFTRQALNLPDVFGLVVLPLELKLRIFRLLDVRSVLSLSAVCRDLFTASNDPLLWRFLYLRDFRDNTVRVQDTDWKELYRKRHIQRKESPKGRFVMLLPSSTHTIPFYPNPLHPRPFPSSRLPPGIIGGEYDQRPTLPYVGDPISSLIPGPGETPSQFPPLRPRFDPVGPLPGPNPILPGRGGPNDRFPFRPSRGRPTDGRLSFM
The experiment can be described thus: yeast two-hybrid; B42-SAD and fragments with LexA-SAF-1 (FIG. 6B).

Results are given in words; binding and its absence hold for the method and conditions named. For some of these results: Binding seen in cells or lysates may run through a third protein. Some binding calls cover weakened binding; strength is not graded here.

B1: Siah-1 (22-298) (protein)
chain: ATALPTGTSKCPPSQRVPALTGTTASNNDLASLFECPVCFDYVLPPILQCQSGHLVCSNCRPKLTCCPTCRGPLGSIRNLAMEKVANSVLFPCKYASSGCEITLPHTEKADHEELCEFRPYSCPCPGASCKWQGSLDAVMPHLMHQHKSITTLQGEDIVFLATDINLPGAVDWVMMQSCFGFHFMLVLEKQEKYDGHQQFFAIVQLIGTRKQAENFAYRLELNGHRRRLTWEATPRSIHEGIATAIMNSDCLVFDTSIAQLFAENGNLGINVTISMC
Take B1: in the experiment with Siah-1 (human) [1], the binding result is listed as “binds”.

B2: SIP-S (protein)
chain: T2 sequence
Regarding B2, the binding entry in the experiment with Siah-1 (human) [2] is “binds”.

B3: Siah-1 (protein)
chain: T1 sequence
Regarding B3, the binding entry (in experiment [3]; in the experiment with SIP-L (human) [4]; with SIP-L (human) [5]; with APC (2681-2843) (human) [6]; in [7]; with APC (2681-2843) (human) [8]) was “binds” each time. Also, the binding result with Siah-1 (human) [9] is “binds”.

B4: SAF-1 (protein)
chain: T4 sequence
Regarding B4, the binding entry with SAD (human) and in the experiment with SIP-L (human) [10] was “binds” throughout.

B5: SAD (protein)
chain: T3 sequence
Consider B5, for which the binding result with Skp1 (human) and with SAF-1 (human) was “binds” in each case.

The record behind these values is patent US20070042463A1.
